Patent publication US20220265603A1, “HEPATIC FIBROSIS-INHIBITING AGENT AND BROWN FAT CELL-ACTIVATING AGENT CONTAINING TAXIFOLIN” (NATIONAL HOSPITAL ORGANIZATION, priority 2019, published 2022)

Assay: Food ingestion experiment: body weight and food intake
Type: in vivo, C57BL/6J mice
Details: feeding period
Method: C57BL/6J mice were used as experimental animals. They were purchased at the age of 7 weeks from CLEA Japan, Inc. and randomly divided into four groups at the age of 8 weeks after 1 week of acclimation as shown in Table 1 below. They were allowed to eat and drink freely, and their food intake and body weight were measured once a week. Fasting blood glucose was measured on the first day of the feeding experiment and once every 4 weeks thereafter (at 4, 8, and 12 weeks after the start of the feeding). At the end of 12 weeks, an intraperitoneal glucose tolerance test (IPGTT) was performed to analyze glucose tolerance. Rectal temperature was also measured at 8 and 12 weeks follow-up (Table 2).

Structure (SMILES): O=C1c2c(O)cc(O)cc2O[C@H](c2ccc(O)c(O)c2)[C@H]1O [taxifolin]
- food intake (high-fat diet+3% taxifolin vs high-fat diet only): no difference in food intake
- food intake (normal diet+3% taxifolin vs normal diet only): no difference in food intake
